From the supplement of paper PMC10626197
Where a name gives a salt, the structure may show the parent alone. Several reference drugs read as weak here; read low effects with care.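 Drug pairs were tested on MCF7 breast cancer cells in a dose grid. On every plate, solvent-only DMSO wells served as the untreated reference, and a doxorubicin series served as the total-kill control. No hit threshold applies to the viability readings.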

Test system: MCF7
Assay: cell viability relative to DMSO control (raw); higher = more viable cells
Conditions: exposure time 72 h
Experimental: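 MCF7 cells, 1000 cells/well in 384-well plates, treated with 6x6 dose matrices of drug pairs (1:3 serial dilutions, DMSO as lowest dose) for 72 h at 37 °C. Viability read by CellTiter-Glo luminescence, 3 biological replicates. Normalised viability sets 0% at the highest doxorubicin dose and 100% at the 0,0 µM control per combination.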

O=C1c2c(O)ccc(O)c2C(=O)c2c(NCCNCCO)ccc(NCCNCCO)c21 [Mitoxantrone] + C=CC(=O)N1CCC(Oc2cc3c(Nc4ccc(Cl)c(Cl)c4F)ncnc3cc2OC)CC1 [Poziotinib]
cell viability [%]
Conditions | drug 2 concentration 0 µM | drug 2 concentration 0.246914 µM | drug 2 concentration 0.740741 µM | drug 2 concentration 2.22222 µM | drug 2 concentration 6.66667 µM | drug 2 concentration 20 µM
drug 1 concentration 0.0123457 µM | 91 | 82.1 | 83.2 | 66.7 | 63.6 | 74.8
drug 1 concentration 0.037037 µM | 96.4 | 94.4 | 93.4 | 79.6 | 69.8 | 78.4
drug 1 concentration 0.111111 µM | 85.4 | 89.6 | 84.4 | 71.9 | 62.2 | 77
drug 1 concentration 0.333333 µM | 74.6 | 74.9 | 74.4 | 67.2 | 61.8 | 64.1
drug 1 concentration 1 µM | 63.6 | 51.7 | 52.6 | 46.9 | 60.8 | 54.8

O=C1c2c(O)ccc(O)c2C(=O)c2c(NCCNCCO)ccc(NCCNCCO)c21 [Mitoxantrone] + CCCNC(=O)c1cn2ncnc(Nc3cc(C(=O)NC4CC4)ccc3C)c2c1C [BMS-582949 (hydrochloride)]
cell viability [%]
Conditions | drug 2 concentration 0 µM | drug 2 concentration 0.37037 µM | drug 2 concentration 1.11111 µM | drug 2 concentration 3.33333 µM | drug 2 concentration 10 µM | drug 2 concentration 30 µM
drug 1 concentration 0.0123457 µM | 92.1 | 93.2 | 92.3 | 93.4 | 80.4 | 70.3
drug 1 concentration 0.037037 µM | 94.7 | 89.3 | 89.1 | 88 | 82.2 | 72.3
drug 1 concentration 0.111111 µM | 84.9 | 83.4 | 85.1 | 86.1 | 75.5 | 73.4
drug 1 concentration 0.333333 µM | 78.1 | 77.5 | 75.5 | 72.4 | 68.2 | 56.1
drug 1 concentration 1 µM | 69.7 | 71.5 | 71 | 75.4 | 71.6 | 83.2

O=C1c2c(O)ccc(O)c2C(=O)c2c(NCCNCCO)ccc(NCCNCCO)c21 [Mitoxantrone] + CN1CCN(CCCN2c3ccccc3Sc3ccc(C(F)(F)F)cc32)CC1 [Trifluoperazine 2HCl]
cell viability [%]
Conditions | drug 2 concentration 0 µM | drug 2 concentration 0.185185 µM | drug 2 concentration 0.555556 µM | drug 2 concentration 1.66667 µM | drug 2 concentration 5 µM | drug 2 concentration 15 µM
drug 1 concentration 0.0123457 µM | 76.5 | 73 | 75.9 | 76.9 | 62.9 | 6.95
drug 1 concentration 0.037037 µM | 69.8 | 70.3 | 69 | 66.5 | 64.1 | 11.8
drug 1 concentration 0.111111 µM | 64.7 | 65.8 | 65.6 | 58.4 | 61.8 | 7.62
drug 1 concentration 0.333333 µM | 51.4 | 53.2 | 55.5 | 46.4 | 37.1 | 1.96
drug 1 concentration 1 µM | 40.3 | 37.2 | 34.9 | 34.7 | 28.9 | 2.7

O=C1c2c(O)ccc(O)c2C(=O)c2c(NCCNCCO)ccc(NCCNCCO)c21 [Mitoxantrone] + CN(C)CCOc1ccc(/C(=C(/CCCl)c2ccccc2)c2ccccc2)cc1 [Toremifene (citrate)]
cell viability [%]
Conditions | drug 2 concentration 0 µM | drug 2 concentration 0.432099 µM | drug 2 concentration 1.2963 µM | drug 2 concentration 3.88889 µM | drug 2 concentration 11.6667 µM | drug 2 concentration 35 µM
drug 1 concentration 0.0123457 µM | 77.3 | 79.7 | 76.6 | 70.6 | 25.4 | 0.301
drug 1 concentration 0.037037 µM | 65.8 | 68.7 | 73.3 | 60.6 | 32 | 0.529
drug 1 concentration 0.111111 µM | 67.6 | 62.9 | 66.6 | 56 | 42.3 | 0.316
drug 1 concentration 0.333333 µM | 49.1 | 50.9 | 50.7 | 46.4 | 15.4 | 0.328
drug 1 concentration 1 µM | 40.6 | 36.3 | 35.6 | 35.4 | 11.9 | 0.31

O=C1c2c(O)ccc(O)c2C(=O)c2c(NCCNCCO)ccc(NCCNCCO)c21 [Mitoxantrone] + COc1cc(Nc2ncc3c(n2)-c2ccc(Cl)cc2C(c2c(F)cccc2OC)=NC3)ccc1C(=O)O [Alisertib]
cell viability [%]
Conditions | drug 2 concentration 0 µM | drug 2 concentration 0.0617284 µM | drug 2 concentration 0.185185 µM | drug 2 concentration 0.555556 µM | drug 2 concentration 1.66667 µM | drug 2 concentration 5 µM
drug 1 concentration 0.0123457 µM | 74.7 | 77.4 | 74.2 | 76.9 | 76 | 71.5
drug 1 concentration 0.037037 µM | 74 | 77.5 | 75.8 | 73.5 | 74 | 70.8
drug 1 concentration 0.111111 µM | 67.9 | 69.2 | 70.4 | 72.9 | 66.8 | 72.8
drug 1 concentration 0.333333 µM | 60.2 | 59.8 | 62.9 | 57.9 | 64.6 | 67.7
drug 1 concentration 1 µM | 36.8 | 38.6 | 37 | 41.8 | 39.1 | 40.7

O=C1c2c(O)ccc(O)c2C(=O)c2c(NCCNCCO)ccc(NCCNCCO)c21 [Mitoxantrone] + C[C@]12C=CC(=O)N[C@@H]1CC[C@@H]1[C@@H]2CC[C@]2(C)[C@@H](C(=O)Nc3cc(C(F)(F)F)ccc3C(F)(F)F)CC[C@@H]12 [Dutasteride]
cell viability [%]
Conditions | drug 2 concentration 0 µM | drug 2 concentration 0.617284 µM | drug 2 concentration 1.85185 µM | drug 2 concentration 5.55556 µM | drug 2 concentration 16.6667 µM | drug 2 concentration 50 µM
drug 1 concentration 0.0123457 µM | 95.5 | 95.9 | 101 | 90.8 | 70.7 | 43.6
drug 1 concentration 0.037037 µM | 89.6 | 95.5 | 95.4 | 94.3 | 80 | 45
drug 1 concentration 0.111111 µM | 90.4 | 88.4 | 95.5 | 77.7 | 61.9 | 38.7
drug 1 concentration 0.333333 µM | 79.6 | 83.1 | 79 | 68.5 | 55.2 | 24.4
drug 1 concentration 1 µM | 65.9 | 65.4 | 63 | 57.9 | 44 | 23.1

O=C1c2c(O)ccc(O)c2C(=O)c2c(NCCNCCO)ccc(NCCNCCO)c21 [Mitoxantrone] + Cc1c(-c2ccc(O)cc2)n(Cc2ccc(OCCN3CCCCCC3)cc2)c2ccc(O)cc12 [Bazedoxifene (acetate)]
cell viability [%]
Conditions | drug 2 concentration 0 µM | drug 2 concentration 0.123457 µM | drug 2 concentration 0.37037 µM | drug 2 concentration 1.11111 µM | drug 2 concentration 3.33333 µM | drug 2 concentration 10 µM
drug 1 concentration 0.0123457 µM | 69.4 | 68.9 | 66.1 | 66.4 | 65.4 | 3.16
drug 1 concentration 0.037037 µM | 62.4 | 59.6 | 62 | 62.4 | 54 | 4.27
drug 1 concentration 0.111111 µM | 66.7 | 57.2 | 60.2 | 65.4 | 57.3 | 4.09
drug 1 concentration 0.333333 µM | 50.1 | 45.2 | 48.6 | 53.6 | 25.4 | 2.16
drug 1 concentration 1 µM | 39.2 | 37.2 | 35.9 | 34.5 | 33.6 | 2.04

O=C1c2c(O)ccc(O)c2C(=O)c2c(NCCNCCO)ccc(NCCNCCO)c21 [Mitoxantrone] + Cc1ncc(NC(=O)c2ccc(CN3CCN(C)CC3)c(C(F)(F)F)c2)cc1Nc1nccc(-c2cccnc2)n1 [Flumatinib (mesylate)]
cell viability [%]
Conditions | drug 2 concentration 0 µM | drug 2 concentration 0.617284 µM | drug 2 concentration 1.85185 µM | drug 2 concentration 5.55556 µM | drug 2 concentration 16.6667 µM | drug 2 concentration 50 µM
drug 1 concentration 0.0123457 µM | 99.3 | 93 | 94.6 | 90.9 | 22.6 | 0.642
drug 1 concentration 0.037037 µM | 97.6 | 93 | 91.8 | 89.9 | 83.3 | 0.687
drug 1 concentration 0.111111 µM | 87.3 | 79.1 | 83.3 | 85.7 | 66.79 | 2.66
drug 1 concentration 0.333333 µM | 78.6 | 71.1 | 71.2 | 72.6 | 0.834 | 1.93
drug 1 concentration 1 µM | 72.2 | 64 | 50.5 | 17 | 0.624 | 1.27

O=C1c2c(O)ccc(O)c2C(=O)c2c(NCCNCCO)ccc(NCCNCCO)c21 [Mitoxantrone] + Clc1cccc(Cl)c1NC1=NCCN1 [Clonidine]
cell viability [%]
Conditions | drug 2 concentration 0 µM | drug 2 concentration 0.0123457 µM | drug 2 concentration 0.037037 µM | drug 2 concentration 0.111111 µM | drug 2 concentration 0.333333 µM | drug 2 concentration 1 µM
drug 1 concentration 0.0123457 µM | 95.9 | 101 | 103 | 103 | 102 | 98.3
drug 1 concentration 0.037037 µM | 93.7 | 91.2 | 95.6 | 95.6 | 100 | 94.7
drug 1 concentration 0.111111 µM | 84.9 | 90.4 | 90.6 | 92 | 96.4 | 97.7
drug 1 concentration 0.333333 µM | 78 | 77.5 | 77.3 | 82.4 | 74.2 | 72.7
drug 1 concentration 1 µM | 72 | 70.5 | 69 | 70.47 | 70.2 | 74.3
